Source: PubChem BioAssay AID493014 (National Center for Advancing Translational Sciences (NCATS), 2011)
Where “and” joins values, the source holds several entries; their conditions need not be identical. Identical values can stand only once. This is one part of the list. Further columns of the screen follow, without active or inactive calls. The list favours compounds with an active or inconclusive main result. The note in brackets gives the kind of curve behind each potency; many fits are weak.

Assay: qHTS Assay to Find Inhibitors of Chronic Active B-Cell Receptor Signaling
Conditions: ABC-DLBCL IkBa-CBG/CBR reporter, luminescence ratio (green luciferase fused to IkBa over red control in TMD8 lymphoma cells), 4 h
Outline: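 Cell line TMD8 (human ABC DLBCL), stably expressing tet-inducible CBG68-IkBa fusion and CBR; IMDM/0.5% FBS; cpd up to 46 uM; dox induction, 4 h, 37C/5% CO2; dual luminescence; green/red ratio; MG132 control.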

[1] = measured here: CBR red luminescence, cell number
[2] = measured here: IkBa-CBG green luminescence

| Compound | AC50 [1] | AC50 [2] |
| --- | --- | --- |
| CCOC(=O)c1ccc(NC(=O)Cn2nnc3ccccc32)cc1 | 5.62 µM [rising, single point] | – |
| COc1ccc(C(=O)NCCCNC(=O)c2ccccn2)cc1Br | 35.5 µM [rising, single point] | – |
| Oc1ccc(NCc2ccc(OCc3ccccc3)cc2)cc1 | 6.31 µM [rising, single point] | 12.6 µM [falling, single point] |
| COc1ccc(Cl)cc1C(=O)NCc1cn(C)nc1C | 14.1 µM [falling, single point] | – |
| CC(=O)Oc1ccc(/C=C2\C=C(c3ccc(C)cc3)OC2=O)cc1 | 8.91 µM [falling, single point] | – |
| CCOc1ccc(OCCC(=O)OCC(=O)Nc2cc(S(=O)(=O)N3CCOCC3)ccc2C)cc1 | 1.64 µM [falling, full curve] | – |
| O=P(c1ccc2c(c1)OCCO2)(N1CCOCC1)N1CCOCC1 | 14.1 µM [falling, partial curve, poor fit] | – |
| Cn1c(-c2ccc(F)cc2)cc2onc(-c3c(F)cccc3Cl)c2c1=O | 4.11 µM [rising, partial curve, poor fit] | – |
| COc1ccc2[nH]c3c(=O)n(Cc4ccco4)cnc3c2c1 | 4.47 µM [falling, full curve, poor fit] | – |
| O=C(COC(=O)c1ccc(S(=O)(=O)N2CCOCC2)cc1)NCc1ccccc1 | 23.1 µM [rising, partial curve, poor fit] | – |
| CC(C)(C)c1ccc(C(=O)NCc2nnc(SCC(=O)NC3CCCCC3)o2)cc1 | 35.5 µM [falling, single point] | – |
| Cc1cccc2c(N)c3c(nc12)N(C)CC3 | 35.5 µM [falling, single point] | – |
| COc1ccc(C(=O)/C=C/c2cn(CC(O)CN3CCOCC3)c3ccccc23)cc1 (stereo unspecified) | 23.1 µM [falling, single point] | – |
| CNc1ncnc2c1ncn2[C@@H]1O[C@H](CO)[C@@H](O)[C@H]1O | 14.6 µM [rising, partial curve, poor fit] | 20.6 µM [falling, single point] |
| CCCCCc1cc(OC)cc2c1C(=O)OC(C)(C)O2 | 18.4 µM [rising, single point] | – |
| O=C(c1cc(-c2ccc(Cl)cc2)on1)N1CCN(c2ccc(F)cc2)CC1 | 10 µM [falling, partial curve, poor fit] | – |
| COc1ccc2c(c1)C(NC(=O)C(F)(F)F)CC2=O (stereo unspecified) | 29.1 µM [rising, single point] | – |
| COc1ccc2o/c(=N\O)c(C(=O)Nc3ccccc3OC)cc2c1 | 0.13 µM [falling, full curve] | – |
| CC(C)Sc1nc2c(c(=O)[nH]1)C(c1cccs1)C1=C(CC(C)(C)CC1=O)N2 (stereo unspecified) | 25.9 µM [falling, partial curve] | – |
| CC(C)=CCCC1=CCC(/C=N/NC(N)=O)C(C)C1 (stereo unspecified) | 23.1 µM [rising, single point] | – |
| Cc1cn(C(=O)CN2C(=O)c3ccccc3C2=O)c(C)n1 | 0.13 µM [rising, full curve, poor fit] | – |

| Compound | AC50 [1] | AC50 [2] |
| --- | --- | --- |
| Cc1ccc(C(=O)Nc2ccsc2C(=O)O)cc1 | 5.01 µM [falling, partial curve] | – |
| Oc1ccccc1CNc1nccs1 | 3.55 µM [falling, single point] | – |
| CN(C)CCCNc1cc(C(C)(C)C)nc2c(-c3ccccc3)cnn12 | 35.5 µM [falling, single point] | – |
| Cc1ccc(-c2nn(-c3ccccc3)cc2/C=C/C(=O)O)o1 | 22.4 µM [falling, partial curve, poor fit] | – |
| O=C(CSc1nc2ccccc2c(=O)n1-c1ccc(F)cc1)Nc1cc(S(=O)(=O)N2CCOCC2)ccc1Cl | 5.8 µM [falling, full curve] | – |
| Cc1cccc(NC(=S)N2CCN(Cc3ccc4c(c3)OCO4)CC2)c1C | 9.2 µM [rising, partial curve, poor fit] | – |
| COc1cc(C(=O)OCC(=O)NCc2ccc(F)cc2)cc(NC(=O)c2cccs2)c1OC | 16.4 µM [falling, partial curve, poor fit] | – |
| Cc1ccc(/C=N/NC(=O)c2cc(C)oc2C)cc1 | 4.47 µM [falling, partial curve] | – |
| COC(=O)c1ccc(C2C(C(=O)c3cc4ccccc4o3)=C(O)C(=O)N2c2cc(C)on2)cc1 (stereo unspecified) | 11.2 µM [falling, partial curve, poor fit] | – |
| O=C(NC(=S)Nc1cccc2cnccc12)c1ccccc1 | 2.82 µM [falling, full curve, poor fit] | – |
| COc1ccccc1C1C(C(=O)c2ccc(C)o2)=C(O)C(=O)N1c1cc(C)on1 (stereo unspecified) | 15.8 µM [falling, single point] | – |
| CS(=O)(=O)N(Cc1ccc(Cl)cc1)c1ccc(C(=O)N2CCN(c3ccccc3)CC2)cc1 | 2.06 µM [falling, full curve, poor fit] | – |
| CCc1nnc(NC(=O)CSc2ncc(-c3ccccc3)[nH]2)s1 | 0.651 µM [rising, partial curve, poor fit] | – |
| C/C(CCC1CC(C)(C)OC1=O)=N\NC(N)=S (stereo unspecified) | 31.6 µM [rising, single point] | 22.4 µM [falling, single point] |
| CCOC(=O)N1CC=C2C(C#N)=C(N)C(C#N)(C#N)[C@H](c3ccsc3)[C@H]2C1 | 28.2 µM [falling, single point] | – |
| O=C(c1ccccn1)N(Cc1ccco1)C1(C(=O)NC2CCCCC2)CCCCC1 | 20.6 µM [rising, single point] | – |
| CC(=O)n1cc(N(C(=O)CCl)c2ccc(Cl)cc2)c2ccccc21 | 5.01 µM [falling, partial curve] | 3.55 µM [rising, full curve] |
| O=C(Nc1ccc2c(c1)Cc1ccccc1-2)c1ccco1 | 15.8 µM [falling, single point] | – |
| Cc1ccc(NC(=O)Cn2nc(C(=O)O)c3ccccc3c2=O)cc1S(=O)(=O)N1CCOCC1 | 14.6 µM [rising, partial curve, poor fit] | 20.6 µM [falling, partial curve, poor fit] |
| CCn1c(NCc2ccccn2)nc2c1c(=O)n(C)c(=O)n2C | – | 18.4 µM [rising, partial curve, poor fit] |
| CCOc1cc2[nH]c(=S)n(Cc3ccc(C(=O)NCCOC)cc3)c(=O)c2cc1OCC | 0.164 µM [falling, full curve, poor fit] | – |

| Compound | AC50 [1] | AC50 [2] |
| --- | --- | --- |
| COc1ccc(NC(=O)CSc2ncnc3c2cnn3Cc2ccccc2)cc1OC | 1.16 µM [falling, full curve] | – |
| CN1CCc2c(sc(/N=C/c3c[nH]c4ccccc34)c2C(N)=O)C1 | 7.08 µM [falling, partial curve] | – |
| O=C(CN1CCN(S(=O)(=O)c2ccc(Cl)cc2)CC1)NC1CCCC1 | 0.0891 µM [falling, full curve, poor fit] | – |
| O=C(COC(=O)c1cc(S(=O)(=O)N2CCOCC2)ccc1F)c1ccc[nH]1 | 7.31 µM [rising, partial curve, poor fit] | – |
| CCCCCCCCCC(=O)N[C@@H]1c2cc(OC)c(OC)cc2C[C@H]1O | – | 18.4 µM [falling, single point] |
| COC(=O)C1=C(C)N(Cc2ccccc2)C(=NCc2ccc(OC)cc2)N[C@H]1c1ccccc1 | 25.1 µM [falling, single point] and 14.6 µM [falling, single point] | – |
| O=C(CSCc1cnn(-c2ccccc2)c1-n1cccc1)N1CCN(Cc2ccccc2)CC1 | 29.1 µM [falling, single point] | – |
| Nc1nc(NCc2ccccc2)n(-c2ccccc2)n1 | 2.51 µM [rising, partial curve, poor fit] | – |
| Cn1cccc1C(=O)NC(=O)COC(=O)CNC(=O)CNC(=O)c1ccc(Cl)cc1Cl | 11.2 µM [rising, partial curve, poor fit] | – |
| O=C(NNC(=O)C1CC1)Nc1ccc(Cl)cc1 | 2.82 µM [rising, full curve] | – |
| COc1ccc(C(=O)N/N=C(\C)c2ccc3c(c2)C2C=CCC2C(c2ccccc2)N3)cc1 (stereo unspecified) | 6.51 µM [falling, full curve, poor fit] | – |
| Cc1cccc2sc(NC(=O)CSc3nnnn3C)nc12 | 8.91 µM [falling, partial curve, poor fit] | – |
| Cc1ccc(Nc2c(-c3ccc(C)o3)nc3cnccn23)cc1 | 1.64 µM [rising, partial curve, poor fit] | – |
| O=[N+]([O-])c1cccc(OCCN2CCC(Cc3ccccc3)CC2)c1 | 35.5 µM [falling, partial curve, poor fit] | – |
| Cc1nc(NC(=O)COc2ccccc2)sc1C(=O)Nc1ccccc1 | 9.2 µM [falling, partial curve, poor fit] | – |
| CCCOP(=O)(c1ccc(N(C)C)cc1)C(O)c1ccc(Cl)cc1 (stereo unspecified) | 12.6 µM [rising, single point] | – |
| CN(CC(=O)Nc1ccccc1Sc1ccccc1)C1CCCCC1 | 25.1 µM [rising, single point] | – |
| Cc1ccc(N2C(=O)c3ccccc3C2C(=O)c2cc(C)ccc2O)cc1 (stereo unspecified) | 29.1 µM [falling, single point] | – |
| Cc1ccccc1CSc1nnc(-c2ccccc2)c(=O)[nH]1 | 2.51 µM [falling, full curve, poor fit] | – |
